PubChem BioAssay AID1259405 – NCATS – 2018
The deposit covers about 50,000 reagents; below is a random part of them. About 4,000 of them (8%) count as active. 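Mouse siRNA library applied to hamster cells; one well for each siRNA.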 Unmarked entries are inactive. The numbers tell different reagents against one gene apart.

Screen: 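Silenced genes that increase secreted GFP made by CHO cells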 (primary screen)
Cells: Chinese hamster CHO-K1 ovary cells with stable secreted eGFP expression
Reagents: single siRNA against mouse genes, 0.8 pmol siRNA per well (2 µl of 400 nM stock)
Time to read-out: 3 days
Measured: 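Per-well intracellular GFP measured by laser scanning cytometry, plus viability from ATP luminescence, each relative to plate median of non-targeting control wells, in %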
Direction: GFP, % of control: higher = more GFP per well, higher productivity; viability (ATP), % of control: higher = more viable cells (more ATP)
Hit rule: 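a knock-down is called active if GFP reaches 120% or more of non-targeting control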

The first 4 entries as a preview:
target gene | siRNA no. | GFP, % of control | viability (ATP), % of control
Ticrr (TOPBP1-interacting checkpoint and replication regulator) | 1 | 83.7 | 44.4
Ticrr (TOPBP1-interacting checkpoint and replication regulator) | 2 | 80.3 | 71.4
Ticrr (TOPBP1-interacting checkpoint and replication regulator) | 3 | 156 (active) | 116
Tcp11l1 (t-complex 11 like 1) | 1 | 50.5 | 89

Main list, repeating the preview:
target gene | siRNA no. | GFP, % of control | viability (ATP), % of control
Ticrr (TOPBP1-interacting checkpoint and replication regulator) | 1 | 83.7 | 44.4
Ticrr (TOPBP1-interacting checkpoint and replication regulator) | 2 | 80.3 | 71.4
Ticrr (TOPBP1-interacting checkpoint and replication regulator) | 3 | 156 (active) | 116
Tcp11l1 (t-complex 11 like 1) | 1 | 50.5 | 89
Tcp11l1 (t-complex 11 like 1) | 2 | 66.7 | 87.6
Tcp11l1 (t-complex 11 like 1) | 3 | 150 (active) | 111
Prg3 (proteoglycan 3) | 1 | 52.7 | 61.2
Prg3 (proteoglycan 3) | 2 | 87.5 | 96.5
Prg3 (proteoglycan 3) | 3 | 88.4 | 83
Mcm3ap | 1 | 50.8 | 55.5
Mcm3ap | 2 | 52.6 | 75.3
Mcm3ap | 3 | 106 | 46.1
Epn3 (epsin 3) | 1 | 63.4 | 102
Epn3 (epsin 3) | 2 | 80.6 | 109
Ddx18 (DEAD box helicase 18) | 1 | 62.8 | 56.6
Ddx18 (DEAD box helicase 18) | 2 | 75.3 | 51.4
Ddx18 (DEAD box helicase 18) | 3 | 81.7 | 148
Asz1 | 1 | 65.8 | 47.4
Asz1 | 2 | 76.4 | 94.9
Asz1 | 3 | 131 (active) | 84.2
Bcas2 (BCAS2 pre-mRNA processing factor) | 1 | 53.4 | 78.5
Bcas2 (BCAS2 pre-mRNA processing factor) | 2 | 76.4 | 92.3
Bcas2 (BCAS2 pre-mRNA processing factor) | 3 | 122 (active) | 141
Acbd3 (acyl-Coenzyme A binding domain containing 3) | 1 | 60.9 | 75.9
Acbd3 (acyl-Coenzyme A binding domain containing 3) | 2 | 54.7 | 75.2
Acbd3 (acyl-Coenzyme A binding domain containing 3) | 3 | 85.4 | 82.8
Apoa1 (apolipoprotein A-I) | 1 | 78.5 | 85.2
Apoa1 (apolipoprotein A-I) | 2 | 110 | 93.3
Apoa1 (apolipoprotein A-I) | 3 | 129 (active) | 61.4
Tafazzin (tafazzin, phospholipid-lysophospholipid transacylase) | 1 | 99.3 | 91.9
Tafazzin (tafazzin, phospholipid-lysophospholipid transacylase) | 2 | 68.5 | 89.2
Tafazzin (tafazzin, phospholipid-lysophospholipid transacylase) | 3 | 132 (active) | 112
Apol9b (apolipoprotein L 9b) | 1 | 60.2 | 72.4
Apol9b (apolipoprotein L 9b) | 2 | 23.9 | 34.8
Apol9b (apolipoprotein L 9b) | 3 | 89.2 | 98.4
Klrd1 (killer cell lectin-like receptor, subfamily D, member 1) | 1 | 129 (active) | 116
Klrd1 (killer cell lectin-like receptor, subfamily D, member 1) | 2 | 89.9 | 70
Irs1 (insulin receptor substrate 1) | 1 | 67.5 | 81.6
Irs1 (insulin receptor substrate 1) | 2 | 80.6 | 53.5
Irs1 (insulin receptor substrate 1) | 3 | 86.4 | 91.9
Lce1a2 (late cornified envelope 1A2) | 1 | 71.7 | 104
Lce1a2 (late cornified envelope 1A2) | 2 | 150 (active) | 125
Lce1a2 (late cornified envelope 1A2) | 3 | 133 (active) | 143
Lrrn3 (leucine rich repeat protein 3, neuronal) | 1 | 119 | 78.7
Lrrn3 (leucine rich repeat protein 3, neuronal) | 2 | 98.7 | 97.9
Lrrn3 (leucine rich repeat protein 3, neuronal) | 3 | 98.6 | 71.2
Bmp3 (bone morphogenetic protein 3) | 1 | 65.9 | 44.8
Bmp3 (bone morphogenetic protein 3) | 2 | 56.9 | 60.4
Bmp3 (bone morphogenetic protein 3) | 3 | 65.9 | 49.9
1700065D16Rik (RIKEN cDNA 1700065D16 gene) | 1 | 80 | 61.3
1700065D16Rik (RIKEN cDNA 1700065D16 gene) | 2 | 53.7 | 49.6
1700065D16Rik (RIKEN cDNA 1700065D16 gene) | 3 | 50.9 | 68.5
Ctsf (cathepsin F) | 1 | 69.2 | 54.7
Ctsf (cathepsin F) | 2 | 50.4 | 26.1
Ctsf (cathepsin F) | 3 | 51.5 | 68.8
Ccdc172 (coiled-coil domain containing 172) | 1 | 83 | 80
Ccdc172 (coiled-coil domain containing 172) | 2 | 80.9 | 105
Ccdc172 (coiled-coil domain containing 172) | 3 | 93.9 | 92.7
Cblc (Cbl proto-oncogene c) | 1 | 75.8 | 59.8
Cblc (Cbl proto-oncogene c) | 2 | 90.6 | 82.3
Cblc (Cbl proto-oncogene c) | 3 | 104 | 93.1
St6galnac4 | 1 | 88.5 | 68.6
St6galnac4 | 2 | 59.2 | 81.4
St6galnac4 | 3 | 61.7 | 94.1
Gbf1 (golgi-specific brefeldin A-resistance factor 1) | 1 | 125 (active) | 119
Gbf1 (golgi-specific brefeldin A-resistance factor 1) | 2 | 67.4 | 85.5
Gbf1 (golgi-specific brefeldin A-resistance factor 1) | 3 | 49.5 | 47.7
Styxl1 (serine/threonine/tyrosine interacting-like 1) | 1 | 91.4 | 76.9
Styxl1 (serine/threonine/tyrosine interacting-like 1) | 2 | 79.2 | 80.9
Styxl1 (serine/threonine/tyrosine interacting-like 1) | 3 | 94.1 | 94.6
S100a6 (S100 calcium binding protein A6 (calcyclin)) | 1 | 98.7 | 96.2
S100a6 (S100 calcium binding protein A6 (calcyclin)) | 2 | 67 | 87.6
4933405O20Rik (RIKEN cDNA 4933405O20 gene) | 1 | 111 | 69.9
4933405O20Rik (RIKEN cDNA 4933405O20 gene) | 2 | 79.2 | 77
4933405O20Rik (RIKEN cDNA 4933405O20 gene) | 3 | 74.9 | 78.7
Pid1 (phosphotyrosine interaction domain containing 1) | 1 | 152 (active) | 116
Pid1 (phosphotyrosine interaction domain containing 1) | 2 | 81.3 | 69.2
Pid1 (phosphotyrosine interaction domain containing 1) | 3 | 97.9 | 85.3
Cmtm4 (CKLF-like MARVEL transmembrane domain containing 4) | 1 | 120 | 95.2
Cmtm4 (CKLF-like MARVEL transmembrane domain containing 4) | 2 | 71.6 | 81
Cmtm4 (CKLF-like MARVEL transmembrane domain containing 4) | 3 | 121 (active) | 133
Casr (calcium-sensing receptor) | 1 | 61.5 | 56.5
Casr (calcium-sensing receptor) | 2 | 81.9 | 83.7
Casr (calcium-sensing receptor) | 3 | 46.4 | 71.8
Sel1l3 (sel-1 suppressor of lin-12-like 3 (C. elegans)) | 1 | 65.1 | 83.5
Sel1l3 (sel-1 suppressor of lin-12-like 3 (C. elegans)) | 2 | 134 (active) | 103
Sel1l3 (sel-1 suppressor of lin-12-like 3 (C. elegans)) | 3 | 75.6 | 48.7
Bmp15 (bone morphogenetic protein 15) | 1 | 85.1 | 81.6
Bmp15 (bone morphogenetic protein 15) | 2 | 47.3 | 47.5
Bmp15 (bone morphogenetic protein 15) | 3 | 78.3 | 54
Rcan1 (regulator of calcineurin 1) | 1 | 53.9 | 55.5
Rcan1 (regulator of calcineurin 1) | 2 | 65.2 | 47.5
Rcan1 (regulator of calcineurin 1) | 3 | 74.3 | 84.5
Tmem106c (transmembrane protein 106C) | 1 | 81.3 | 107
Tmem106c (transmembrane protein 106C) | 2 | 52.5 | 76.1
Tmem106c (transmembrane protein 106C) | 3 | 71.6 | 101
Ubtd1 (ubiquitin domain containing 1) | 1 | 24.6 | 40.9
Ubtd1 (ubiquitin domain containing 1) | 2 | 62.2 | 55.5
Ubtd1 (ubiquitin domain containing 1) | 3 | 50.6 | 90.5
Lin28b (lin-28 homolog B) | 1 | 95.1 | 94.3
Lin28b (lin-28 homolog B) | 2 | 110 | 81.8
Lin28b (lin-28 homolog B) | 3 | 58 | 52.9
Emp3 (epithelial membrane protein 3) | 1 | 73.1 | 60
Emp3 (epithelial membrane protein 3) | 2 | 73.4 | 77.7
Emp3 (epithelial membrane protein 3) | 3 | 37.9 | 51
Rcor1 (REST corepressor 1) | 1 | 99.9 | 91.2
Rcor1 (REST corepressor 1) | 2 | 70.3 | 68.2
Rcor1 (REST corepressor 1) | 3 | 117 | 128
